The name of at least one read-out is uncertain.
Experiments:
Assay in all cases: Internally quenched peptide probe cleavage assay
Format in all cases: biochemical
Conditions in all cases: 37° C.
MMP14 = MMP14 (Homo sapiens, UniProt P50281)
Description: (§1) The study provided herein evaluated the cleavability kinetics (i.e., pM/s and kcat/KM (M^−1s^−1)) of CMs with matrix metalloprotease (MMP) 2 (MMP2), MMP9, and MMP14. The CM AIALY (SEQ ID NO: 5) was presented in an internally quenched peptide probe format, rather than included in an activatable antibody format. In the internally quenched probe, the CM sequence was positioned between a 7-methoxycoumarin-4-acetyl (MCA) fluorophore and a 2,4-dinitrophenyl (DNP) quencher such that cleavage of the CM sequence produces a fluorescence signal. The probe was of the following design: (MCA)-[…](DNP)-D-Arg (SEQ ID NO: 160). The cleavage rates (pM/s) were measured using 20 μM internally quenched peptide probe and 20 nM MMP2, MMP9, or MMP14. Cleavability kinetics (i.e., pM/s and kcat/KM (M^−1s^−1)) were determined in 96- or 384-well plate format at 37° C. in the following buffers: 50 mM Tris-HCl (pH 7.5), 10 mM CaCl2), 150 mM NaCl, 0.05% (w/v) Brij-35 for MMP2 and MMP9 or 50 mM HEPES (pH 6.8), 10 mM CaCl2), 0.5 mM MgCl2, 0.05% (w/v) Brij-35 for MMP14. Cleavability kinetics were determined on an Infinite 200 PRO (Tecan) multimode plate reader using a fluorescence excitation wavelength of 320 nm and an emission wavelength of 405 nm.

By UniProt entry, the sequences of proteins in these tests, tags left out. Residues count along the entry.
UniProt P14780, 94-707: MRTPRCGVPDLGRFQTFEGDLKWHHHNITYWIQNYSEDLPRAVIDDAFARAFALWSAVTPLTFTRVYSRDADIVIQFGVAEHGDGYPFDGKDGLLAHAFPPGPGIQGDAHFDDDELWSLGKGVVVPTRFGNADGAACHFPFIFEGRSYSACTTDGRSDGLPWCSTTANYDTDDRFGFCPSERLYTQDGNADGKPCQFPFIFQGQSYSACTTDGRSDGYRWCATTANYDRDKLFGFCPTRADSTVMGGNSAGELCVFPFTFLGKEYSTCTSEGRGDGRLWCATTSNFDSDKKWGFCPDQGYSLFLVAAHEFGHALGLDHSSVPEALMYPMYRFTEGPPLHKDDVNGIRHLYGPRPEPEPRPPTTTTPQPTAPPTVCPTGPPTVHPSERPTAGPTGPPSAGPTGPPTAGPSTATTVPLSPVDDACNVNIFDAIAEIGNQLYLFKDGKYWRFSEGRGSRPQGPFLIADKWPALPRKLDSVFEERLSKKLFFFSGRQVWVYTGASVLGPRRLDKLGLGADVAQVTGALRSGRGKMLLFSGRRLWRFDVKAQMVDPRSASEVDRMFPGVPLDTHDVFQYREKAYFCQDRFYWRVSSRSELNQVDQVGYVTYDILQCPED

MMP9 = MMP9 (Homo sapiens, UniProt P14780)
Description: as §1

MMP2 = biological target: T1, MMP2 (Homo sapiens, UniProt P08253)
T1 sequence (P08253 110-660): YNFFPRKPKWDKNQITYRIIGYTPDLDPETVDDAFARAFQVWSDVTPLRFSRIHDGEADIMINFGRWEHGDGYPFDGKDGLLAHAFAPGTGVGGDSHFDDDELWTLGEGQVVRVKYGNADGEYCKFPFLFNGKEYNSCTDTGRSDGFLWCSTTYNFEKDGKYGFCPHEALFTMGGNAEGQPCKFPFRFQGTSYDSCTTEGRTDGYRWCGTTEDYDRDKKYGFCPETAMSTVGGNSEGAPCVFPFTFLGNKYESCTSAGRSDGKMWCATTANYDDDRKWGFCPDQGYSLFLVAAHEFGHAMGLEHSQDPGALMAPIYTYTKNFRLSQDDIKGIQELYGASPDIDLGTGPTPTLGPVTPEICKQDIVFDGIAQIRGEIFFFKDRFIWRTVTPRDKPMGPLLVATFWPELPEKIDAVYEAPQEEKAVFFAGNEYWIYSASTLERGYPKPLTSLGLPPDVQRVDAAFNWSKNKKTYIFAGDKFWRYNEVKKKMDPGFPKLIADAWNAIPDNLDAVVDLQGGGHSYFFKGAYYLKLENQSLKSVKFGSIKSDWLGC
Description: as §1

Substance: (MCA)-Gly-Ser-Ala-Ile-Ala-Leu-Tyr-Gly-Gly-Ser-Lys (DNP)-D-Arg (GSAIALYGGSKR; MCA and DNP quencher labels, D-Arg; SITE 1 7-methoxycoumarin-4-acetyl glycine; SITE 11 2,4-dinitrophenyl lysine; SITE 12 D-amino acid)
- Probe Cleavage (kcat/KM) MMP14 (MMP14): 4800 M⁻¹ s⁻¹
- Probe Cleavage (kcat/KM) MMP14 (MMP14; listed as CM AIALY): greater than 4.0×10^3 M^−1 s^−1
- Probe Cleavage (kcat/KM) MMP9 (MMP9): 41000 M⁻¹ s⁻¹
- Probe Cleavage (kcat/KM) MMP9 (MMP9; listed as CM AIALY): greater than 4.0×10^3 M^−1 s^−1
- Probe Cleavage (kcat/KM) MMP2 (MMP2): 39000 M⁻¹ s⁻¹
- Probe Cleavage (kcat/KM) MMP2 (MMP2; listed as CM AIALY): greater than 4.0×10^3 M^−1 s^−1

— US20260049148A1, “PROTEASE-CLEAVABLE MOIETIES AND METHODS OF USE THEREOF” (CytomX Therapeutics, Inc., priority 2022, published 2026)
